# The supplement of paper PMC4604168 (melanoma cell lines)
# The list shows a part of the results. Repeats are few or missing, and single values can be far off.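 The apoptosis fraction was the count of cleaved-PARP antibody-stained nuclei relative to all DNA-stained nuclei, imaged in 1,536-well plates. Screening doses were set so most cells survived, and baseline and induced cleaved-PARP levels vary greatly across cell lines.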
# Tests used:
# Assay in all cases: cleaved PARP positive nuclei fraction relative to DMSO control; melanoma cells; higher = more apoptosis
# Details in all cases: library dose: low library concentration; 72 h
# A101D = system: A101D
# A2058 = system: A2058
# A375 = system: A375
# C32 = system: C32
# CBRC008 = system: CBRC008 (line from a melanoma biopsy)
# CBRC014 = system: CBRC014 (line from a melanoma biopsy)
# CBRC016 = system: CBRC016 (line from a melanoma biopsy)
# CBRC017 = system: CBRC017 (line from a melanoma biopsy)
Structure (SMILES),cleaved PARP positive nuclei fraction (A101D),cleaved PARP positive nuclei fraction (A2058),cleaved PARP positive nuclei fraction (A375),cleaved PARP positive nuclei fraction (C32),cleaved PARP positive nuclei fraction (CBRC008),cleaved PARP positive nuclei fraction (CBRC014),cleaved PARP positive nuclei fraction (CBRC016),cleaved PARP positive nuclei fraction (CBRC017)
"CC1(C)CCC(c2ccc(Cl)cc2)=C(CN2CCN(c3ccc(C(=O)NS(=O)(=O)c4ccc(N[C@H](CCN5CCOCC5)CSc5ccccc5)c(S(=O)(=O)C(F)(F)F)c4)cc3)CC2)C1 + Cn1cnc2c(F)c(Nc3ccc(Br)cc3Cl)c(C(=O)NOCCO)cc21 [selumetinib] (first compound 0.4 µM, partner dose 0.015 µM)",211%,203%,570%,377%,756%,712%,602%,583%
"CC(=O)O[C@@]12CO[C@@H]1C[C@H](O)[C@@]1(C)C(=O)[C@H](O)C3=C(C)[C@@H](OC(=O)[C@H](O)[C@@H](NC(=O)OC(C)(C)C)c4ccccc4)C[C@@](O)([C@@H](OC(=O)c4ccccc4)[C@H]21)C3(C)C [Docetaxel] + Cc1cc([N+](=O)[O-])ccc1NS(=O)(=O)c1cc(Cl)ccc1Cl [FH535] (first compound 0.0001 µM, partner dose 1 µM)",109%,2980%,,281%,659%,188%,1800%,227%
"CCCCCCCCc1ccc(CCC(N)(CO)CO)cc1 [fingolimod] + COc1cc(N2CCC(N3CCN(C)CC3)CC2)ccc1Nc1ncc(Cl)c(Nc2ccccc2S(=O)(=O)C(C)C)n1 [NVP-TAE684] (first compound 2 µM, partner dose 0.08 µM)",49.2%,136%,,89.2%,59.6%,99.7%,55.7%,229%
"C[C@@H](N)c1ccc(C(=O)Nc2ccnc3[nH]ccc23)cc1 + Cn1nnc2c(C(N)=O)ncn2c1=O [temozolomide] (first compound 0.4 µM, partner dose 2 µM)",58.8%,101%,59.7%,86.9%,89%,170%,112%,92.4%
"Cn1sc(=O)n(Cc2ccccc2)c1=O + Nc1ccn([C@@H]2O[C@H](CO)[C@@H](O)C2(F)F)c(=O)n1 [gemcitabine] (first compound 0.4 µM, partner dose 0.0004 µM)",59.8%,112%,145%,69.9%,188%,122%,47.4%,121%
"C[C@]1(O)C[C@@H](c2nc(-c3ccc4ccc(-c5ccccc5)nc4c3)c3c(N)nccn32)C1 + CC(=O)c1c(C)c2cnc(Nc3ccc(N4CCNCC4)cn3)nc2n(C2CCCC2)c1=O [palbociclib] (first compound 0.4 µM, partner dose 0.04 µM)",48.9%,97.5%,299%,81.8%,128%,122%,48.9%,126%
"CCCCCCCCc1ccc(CCC(N)(CO)CO)cc1 [fingolimod] + O=c1cc(-c2cccc3c2Sc2ccccc2S3)oc(N2CCOCC2)c1 [KU55933] (first compound 2 µM, partner dose 1 µM)",31.1%,222%,,123%,139%,110%,19.5%,115%
"NC(=O)c1ccc(N(C(N)=O)c2c(F)cccc2F)nc1-c1ccc(F)cc1F + CCc1ccc(CCOc2ccc(CC3SC(=O)NC3=O)cc2)nc1 [pioglitazone] (first compound 0.4 µM, partner dose 2 µM)",44.8%,77.5%,,35.7%,27.9%,91%,61.4%,86.6%
"Cn1cnc2c(F)c(Nc3ccc(Br)cc3Cl)c(C(=O)NOCCO)cc21 [selumetinib] + O=C(O)c1ccc2c(c1)nc(Nc1cccc(Cl)c1)c1ccncc12 [CX4945] (first compound 0.015 µM, partner dose 0.4 µM)",104%,79.2%,139%,82.9%,257%,102%,203%,320%
"NC1(c2ccc(-c3nc4ccn5c(=O)[nH]nc5c4cc3-c3ccccc3)cc2)CCC1 + Nc1nc(F)nc2c1ncn2[C@@H]1O[C@H](CO)[C@@H](O)[C@@H]1O [fludarabine] (first compound 0.4 µM, partner dose 0.2 µM)",176%,350%,4390%,76.5%,83.8%,97.5%,42.4%,103%
"Cn1sc(=O)n(Cc2ccccc2)c1=O + C=C(c1ccc(C(=O)O)cc1)c1cc2c(cc1C)C(C)(C)CCC2(C)C [Bexarotene] (first compound 0.4 µM, partner dose 2 µM)",20.3%,176%,51.8%,84.4%,177%,104%,150%,140%
"CC(=O)O[C@@]12CO[C@@H]1C[C@H](O)[C@@]1(C)C(=O)[C@H](O)C3=C(C)[C@@H](OC(=O)[C@H](O)[C@@H](NC(=O)OC(C)(C)C)c4ccccc4)C[C@@](O)([C@@H](OC(=O)c4ccccc4)[C@H]21)C3(C)C [Docetaxel] + O=C(O)c1ccc2c(c1)nc(Nc1cccc(Cl)c1)c1ccncc12 [CX4945] (first compound 0.0001 µM, partner dose 0.4 µM)",98%,2300%,3220%,88.7%,123%,214%,411%,321%
"Cn1cnc2c(F)c(Nc3ccc(Br)cc3Cl)c(C(=O)NOCCO)cc21 [selumetinib] + COc1cc(N2CCC(N3CCN(C)CC3)CC2)ccc1Nc1ncc(Cl)c(Nc2ccccc2S(=O)(=O)C(C)C)n1 [NVP-TAE684] (first compound 0.015 µM, partner dose 0.08 µM)",40.5%,58.7%,,198%,77.3%,105%,22.2%,447%
"C[C@@H](N)c1ccc(C(=O)Nc2ccnc3[nH]ccc23)cc1 + C[C@@H](Oc1cc(-c2cnn(C3CCNCC3)c2)cnc1N)c1c(Cl)ccc(F)c1Cl [Crizotinib] (first compound 0.4 µM, partner dose 0.2 µM)",44.7%,236%,112%,90.5%,70.3%,115%,29.9%,120%
"CCN(CC)CCNC(=O)c1c(C)[nH]c(/C=C2\C(=O)Nc3ccc(F)cc32)c1C [sunitinib] + O=C(Nc1ccccc1)c1cc([N+](=O)[O-])ccc1Cl [GW9662] (first compound 0.4 µM, partner dose 2 µM)",33.6%,88.3%,,129%,69.4%,82.7%,93%,68.7%
"CC(=O)O[C@@]12CO[C@@H]1C[C@H](O)[C@@]1(C)C(=O)[C@H](O)C3=C(C)[C@@H](OC(=O)[C@H](O)[C@@H](NC(=O)OC(C)(C)C)c4ccccc4)C[C@@](O)([C@@H](OC(=O)c4ccccc4)[C@H]21)C3(C)C [Docetaxel] + COc1cc2ncnc(Nc3ccc(Oc4ccccc4)cc3)c2cc1OC [SrcI1] (first compound 0.0001 µM, partner dose 2 µM)",14.1%,5040%,,542%,378%,159%,190%,249%
"CS(=O)(=O)c1ccc(C(=O)Nc2ccc(Cl)c(-c3ccccn3)c2)c(Cl)c1 [vismodegib] + CCCS(=O)(=O)Nc1ccc(F)c(C(=O)c2c[nH]c3ncc(Cl)cc23)c1F [PLX4720] (first compound 1 µM, partner dose 0.08 µM)",29.7%,232%,475%,87%,59.9%,129%,102%,127%
"CC1(C)CCC(c2ccc(Cl)cc2)=C(CN2CCN(c3ccc(C(=O)NS(=O)(=O)c4ccc(N[C@H](CCN5CCOCC5)CSc5ccccc5)c(S(=O)(=O)C(F)(F)F)c4)cc3)CC2)C1 + Nc1cccc2c1CN(C1CCC(=O)NC1=O)C2=O [lenalidomide] (first compound 0.4 µM, partner dose 1 µM)",85%,45.9%,188%,115%,646%,330%,360%,375%

# Some of the entries so far, tab-delimited:
Structure (SMILES)	cleaved PARP positive nuclei fraction (A101D)	cleaved PARP positive nuclei fraction (A2058)	cleaved PARP positive nuclei fraction (A375)	cleaved PARP positive nuclei fraction (C32)	cleaved PARP positive nuclei fraction (CBRC008)	cleaved PARP positive nuclei fraction (CBRC014)	cleaved PARP positive nuclei fraction (CBRC016)	cleaved PARP positive nuclei fraction (CBRC017)
C[C@]1(O)C[C@@H](c2nc(-c3ccc4ccc(-c5ccccc5)nc4c3)c3c(N)nccn32)C1 + CC(=O)c1c(C)c2cnc(Nc3ccc(N4CCNCC4)cn3)nc2n(C2CCCC2)c1=O [palbociclib] (first compound 0.4 µM, partner dose 0.04 µM)	48.9%	97.5%	299%	81.8%	128%	122%	48.9%	126%
CCCCCCCCc1ccc(CCC(N)(CO)CO)cc1 [fingolimod] + O=c1cc(-c2cccc3c2Sc2ccccc2S3)oc(N2CCOCC2)c1 [KU55933] (first compound 2 µM, partner dose 1 µM)	31.1%	222%		123%	139%	110%	19.5%	115%
NC(=O)c1ccc(N(C(N)=O)c2c(F)cccc2F)nc1-c1ccc(F)cc1F + CCc1ccc(CCOc2ccc(CC3SC(=O)NC3=O)cc2)nc1 [pioglitazone] (first compound 0.4 µM, partner dose 2 µM)	44.8%	77.5%		35.7%	27.9%	91%	61.4%	86.6%
Cn1cnc2c(F)c(Nc3ccc(Br)cc3Cl)c(C(=O)NOCCO)cc21 [selumetinib] + O=C(O)c1ccc2c(c1)nc(Nc1cccc(Cl)c1)c1ccncc12 [CX4945] (first compound 0.015 µM, partner dose 0.4 µM)	104%	79.2%	139%	82.9%	257%	102%	203%	320%
NC1(c2ccc(-c3nc4ccn5c(=O)[nH]nc5c4cc3-c3ccccc3)cc2)CCC1 + Nc1nc(F)nc2c1ncn2[C@@H]1O[C@H](CO)[C@@H](O)[C@@H]1O [fludarabine] (first compound 0.4 µM, partner dose 0.2 µM)	176%	350%	4390%	76.5%	83.8%	97.5%	42.4%	103%
